Measurements taken from PMC11032371.
No constants are given. Whether binding was seen depends on the method and setting. Binding seen in cells or lysates may run through a third protein. Binding can be weak; no strength is given.

Sequences of proteins named here, by UniProt entry; tags and fusion partners are left off. A change or cut given only in a name is not applied to a line headed by its entry.
UniProt P01375: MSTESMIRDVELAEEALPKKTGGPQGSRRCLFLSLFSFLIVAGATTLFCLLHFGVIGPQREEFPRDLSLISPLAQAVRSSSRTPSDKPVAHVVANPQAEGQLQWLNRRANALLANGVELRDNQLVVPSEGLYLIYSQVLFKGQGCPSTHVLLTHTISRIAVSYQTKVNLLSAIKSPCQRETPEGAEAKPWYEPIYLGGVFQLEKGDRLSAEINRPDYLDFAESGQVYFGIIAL

Biological target: HS-TNFα (human) (UniProt P01375)
Test: pull-down; N4BP1+/+ MEFs stimulated with HS-TNFα (1 μg/ml, 5 min); TNFα-bound signalling complex (TNFR1-SC) pulled down from the lysate with Strep-tactin resin; Western blot; only the target purified

B1: endogenous mouse N4BP1 (protein, UniProt Q6A037 1-893)
chain: MAARVVLDEFTAPAEKAALLERSRGRIEALFGVGLAVLGALGAEEPLPARIWLQLRGAQEAVHSAKEYIKGICEPELEEKECYPKAMHCIFVGAQSLFLKSLIQDTCADLCVLDTGLLGIRGSAEAVVMARSHIQQFVKLFESNENLPSNQRESEIKREFRQFVEAHADSYTMDLLILPTSLKKELLSLTQGEESLFETDDDVITVGDVRPPEYTQSAATGPSSARDEVVVQEDSRNKARTPVSELTKHMDTVFSSSPDVLFVPVNGLSPDEDALSKDRVCHKRRSSDTEERHTKKQFSLENVPEGELLPDGKGSAGNEVIDLSDPASNSTNLSPDGKDTTEEMEYNILVNFFKTMGYSQEIVEKVIREYGPSTEPLLLLEEIEKENKRLQEDRDFPPCTVYPDASQSRNAGVGSTTNELTADSTPKKAQSHTEQSMVERFSQLPFKDSKHCTSNCKVNSFRTVPVGQKQEIWGSKQNSSCTVDLETDGHSASAASASPKDISFVSRGASGHQQRNPAFPENGFQQQTEPLLPNNTKPACEKRSGSCSSPQPKPNYPPLSPPLPLPQLLPSVTEARLGGSSDHIDSSVTGVQRFRDTLKIPYKLELKNEPGRADLKHIVIDGSNVAITHGLKKFFSCRGIAIAVEYFWKLGNRNITVFVPQWRTRRDPNITEQHFLTQLQELGILSLTPARMVFGERIASHDDRFLLHLADKTGGIIVTNDNFREFVTESVSWREIITKRLLQYTFVGDIFMVPDDPLGRNGPRLEEFLRKEAFLRHMQPLLNALPSVGTFDPGFRSPSTQVANNSHQPPPRIQTSSSPWLPQQSHFTALATLPSMQQNPPLPAQRSSAETSELREALLKIFPDSEQKLKIDQILAAHPYMKDLNALSALVLD
- binding: binds
